Measurements: publication PMC6056564
No constants are given. Whether binding was seen depends on the method and setting. In cells and extracts the contact can be indirect. Some binding calls cover weakened binding; strength is not graded here.

Protein sequences, listed by entry. Tags and fused reporters are not part of them. Residues count along the entry.
UniProt P23818, residues 19-907: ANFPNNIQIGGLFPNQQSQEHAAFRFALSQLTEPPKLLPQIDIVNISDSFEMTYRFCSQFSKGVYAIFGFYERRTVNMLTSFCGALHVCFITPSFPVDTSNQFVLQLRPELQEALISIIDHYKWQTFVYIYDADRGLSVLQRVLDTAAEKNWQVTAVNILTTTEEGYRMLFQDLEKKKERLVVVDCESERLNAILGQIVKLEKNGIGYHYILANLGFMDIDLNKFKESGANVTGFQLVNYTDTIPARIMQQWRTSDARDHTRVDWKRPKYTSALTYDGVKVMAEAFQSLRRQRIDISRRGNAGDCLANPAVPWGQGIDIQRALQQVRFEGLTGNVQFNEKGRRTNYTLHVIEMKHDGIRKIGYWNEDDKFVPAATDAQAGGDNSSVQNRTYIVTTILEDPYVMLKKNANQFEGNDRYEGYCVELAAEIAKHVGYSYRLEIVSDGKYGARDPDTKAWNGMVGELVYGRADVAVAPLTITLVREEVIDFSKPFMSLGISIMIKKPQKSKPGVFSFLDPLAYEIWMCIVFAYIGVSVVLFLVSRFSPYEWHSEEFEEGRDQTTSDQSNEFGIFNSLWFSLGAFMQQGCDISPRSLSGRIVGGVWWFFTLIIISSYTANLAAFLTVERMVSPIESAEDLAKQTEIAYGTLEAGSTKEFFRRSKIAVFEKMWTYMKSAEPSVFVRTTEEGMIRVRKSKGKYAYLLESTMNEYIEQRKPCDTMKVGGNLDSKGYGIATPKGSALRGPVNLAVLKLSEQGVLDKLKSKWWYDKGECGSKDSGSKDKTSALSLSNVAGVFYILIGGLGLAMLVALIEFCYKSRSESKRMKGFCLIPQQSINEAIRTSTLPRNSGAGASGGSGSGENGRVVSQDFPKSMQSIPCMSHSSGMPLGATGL
UniProt Q5Y5T5: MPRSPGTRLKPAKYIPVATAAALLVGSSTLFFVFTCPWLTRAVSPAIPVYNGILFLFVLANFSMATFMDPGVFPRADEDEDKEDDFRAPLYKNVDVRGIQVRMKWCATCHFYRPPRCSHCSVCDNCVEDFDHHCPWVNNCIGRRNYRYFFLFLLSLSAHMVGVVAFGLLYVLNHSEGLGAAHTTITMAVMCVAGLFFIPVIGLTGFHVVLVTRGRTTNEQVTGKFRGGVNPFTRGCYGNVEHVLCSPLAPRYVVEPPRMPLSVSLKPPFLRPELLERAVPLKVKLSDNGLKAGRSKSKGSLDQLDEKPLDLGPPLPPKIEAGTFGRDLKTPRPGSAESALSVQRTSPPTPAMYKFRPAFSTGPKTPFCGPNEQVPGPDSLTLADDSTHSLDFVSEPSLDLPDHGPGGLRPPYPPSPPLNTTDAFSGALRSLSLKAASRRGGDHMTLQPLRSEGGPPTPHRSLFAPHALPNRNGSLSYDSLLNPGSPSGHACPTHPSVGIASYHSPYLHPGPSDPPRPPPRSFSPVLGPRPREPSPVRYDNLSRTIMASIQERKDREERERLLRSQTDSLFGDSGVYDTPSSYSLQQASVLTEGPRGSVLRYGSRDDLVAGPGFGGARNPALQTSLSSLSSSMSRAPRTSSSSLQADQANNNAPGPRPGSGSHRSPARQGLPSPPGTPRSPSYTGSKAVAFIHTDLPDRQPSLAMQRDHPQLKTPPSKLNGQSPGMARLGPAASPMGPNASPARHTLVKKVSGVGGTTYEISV

Target: GluA1 protein (AMPA receptor subunit) (mouse (endogenous in hippocampus of C57BL/6 mice)) (UniProt P23818)
Assay: co-IP; hippocampal lysates of KA-induced chronic epileptic mice in modified RIPA buffer; antibodies to ZDHHC8, GluA1, GluA2, GluA3 or GluA4 with protein A/G-agarose beads, 2 h at room temperature, three washes with RIPA buffer; Western blots with ZDHHC8 and GluA1-4 antibodies

binding: binds
Substance: Zinc finger DHHC-type containing 8 (ZDHHC8) (from UniProt Q5Y5T5 1-762) (enzyme)
